± gives the standard error. The list shows a part of the results. This data set is noisy: repeats of one test often differ as much as different tests do.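 Every DNA sequence of one to five nucleotides was in the library. Extension ability overall was judged using a cutoff equal to the blocked version's mean plus three standard deviations; the probe detects only chains with at least seven added dT.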
Each sequence was assayed against terminal deoxynucleotidyl transferase (calf thymus) (UniProt P06526) (assay: TdT poly-dT extension signal (Cy3 hybridisation fluorescence, uncapped minus capped) (fluorescence a.u.); higher = more efficient initiation of TdT extension). Conditions: initiator chemistry: D-DNA, free 3'-OH (5'-tethered via HEG linker).
Description: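 All mono- to pentamer initiator sequences were made by photolithographic in situ synthesis (reverse 5'->3' direction) on glass on a single hexaethylene glycol linker. Each was made in uncapped and DMTr-dT-capped versions, about 11 replicate features each. Arrays were extended with calf thymus TdT (0.2 U/uL) and 100 uM dTTP in TdT buffer with 0.25 mM CoCl2 for 120 min at 37 C, then hybridised with an rA18-Cy3 probe at 4 C and scanned at 532 nm. The value is the mean uncapped signal minus the mean capped signal of the same sequence.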

Amino acid sequences for entries named in this document (tags omitted). A change or cut given only in a name is not applied to a line headed by its entry.
UniProt P06526: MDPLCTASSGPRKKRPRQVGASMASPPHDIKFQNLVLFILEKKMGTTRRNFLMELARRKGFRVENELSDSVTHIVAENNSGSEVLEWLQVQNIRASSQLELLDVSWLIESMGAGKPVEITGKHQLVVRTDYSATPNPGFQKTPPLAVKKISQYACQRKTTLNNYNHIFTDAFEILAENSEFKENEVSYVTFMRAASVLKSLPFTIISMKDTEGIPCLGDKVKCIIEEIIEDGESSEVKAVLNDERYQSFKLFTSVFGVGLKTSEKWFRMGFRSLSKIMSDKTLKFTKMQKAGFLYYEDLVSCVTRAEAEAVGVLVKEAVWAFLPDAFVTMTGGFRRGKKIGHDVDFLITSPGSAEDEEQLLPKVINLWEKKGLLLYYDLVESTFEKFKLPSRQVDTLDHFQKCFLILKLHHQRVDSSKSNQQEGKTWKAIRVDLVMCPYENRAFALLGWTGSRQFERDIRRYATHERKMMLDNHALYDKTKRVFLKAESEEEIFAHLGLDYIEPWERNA

Sequence | TdT poly-dT extension signal
CATTG | 3240 ± 380
ATCG | 3410 ± 380
GCAC | 3120 ± 280
GCAGC | 3990 ± 330
CGGTT | 4650 ± 620
AGTTG | 3320 ± 300
ACATC | 2820 ± 340
ATCCG | 3150 ± 360
CCGGG | 4770 ± 650
CGGGT | 4550 ± 650
ATAAC | 2660 ± 410
GTACG | 3510 ± 320
GGCT | 3340 ± 240
GTCGG | 3280 ± 380
AGCTT | 3250 ± 380
GGGGT | 5230 ± 630
GGCCT | 4290 ± 780
ATGGG | 4800 ± 480
AGAA | 3010 ± 410
ATCTC | 2240 ± 300
TGAGA | 3750 ± 350
TAGGC | 2810 ± 400

Reformatted as a markdown table: part of the list above.

| Sequence | TdT poly-dT extension signal |
| --- | --- |
| GGCCT | 4290 ± 780 |
| ATGGG | 4800 ± 480 |

Remaining list, next part.

Sequence | TdT poly-dT extension signal
TGCTA | 3570 ± 330
TATT | 4260 ± 330
GTCAC | 3640 ± 440
TTCTG | 3830 ± 370
CGAAC | 3130 ± 320
ACAAC | 3090 ± 440
ACCAG | 3920 ± 500
AATAT | 3060 ± 430
TAGTG | 3780 ± 530
AATGG | 3260 ± 460
CCGAT | 4540 ± 480
AATGA | 2870 ± 510
CGCGC | 4030 ± 310
CCCAG | 4320 ± 380
TTCTC | 2560 ± 280
TTTGT | 4310 ± 310
AGACT | 3090 ± 120
TCAT | 4120 ± 290
CGTAT | 4220 ± 420
TCTAG | 3910 ± 330
TTAG | 3840 ± 470
CCGAC | 3110 ± 310

Sequence | TdT poly-dT extension signal
CCACC | 3330 ± 230
CAATC | 3120 ± 390
TGTA | 3860 ± 260
TCGT | 3380 ± 330
ACGCT | 3360 ± 250
TTTGC | 3380 ± 290
CCGGA | 3940 ± 550
CTCCT | 3480 ± 340
CCCA | 2520 ± 590
GCAAC | 3260 ± 460
TCTC | 3210 ± 310
CTAT | 3610 ± 330
AAAGA | 5070 ± 610
TTGC | 2820 ± 300
GCATT | 4080 ± 500
GCTC | 2720 ± 380
TGGAC | 3420 ± 420
ACAAA | 5290 ± 280
ATGTG | 3480 ± 430
CTAC | 3190 ± 290
TGCAG | 4700 ± 390
TTCGT | 3440 ± 370

Sequence | TdT poly-dT extension signal
CGTGT | 3500 ± 720
AACC | 3170 ± 250
TGTTA | 3970 ± 400
GTCCA | 3590 ± 230
CCAA | 4870 ± 420
AGGCC | 3010 ± 330
TCCAT | 3530 ± 410
GCAGA | 3930 ± 480
TCGCC | 2880 ± 530
TGCAT | 4590 ± 420
AGACC | 2290 ± 270
TCATC | 2860 ± 450
CTCAG | 4010 ± 420
GCGCG | 3680 ± 350
TCGCT | 3060 ± 270
GCGC | 3200 ± 550
ATTCC | 2970 ± 190
AATGT | 3590 ± 370
ATGCG | 3550 ± 360
TTAAG | 3870 ± 510
AACAG | 3280 ± 470
GGGG | 4380 ± 560

Three entries from above, set out differently:
Sequence	TdT poly-dT extension signal
GCAGA	3930 ± 480
GCGCG	3680 ± 350
TCGCT	3060 ± 270

(next part)

Sequence | TdT poly-dT extension signal
CAGTC | 3710 ± 290
ATCAG | 3970 ± 350
TAAAT | 4940 ± 700
CAGTG | 3920 ± 450
TCTT | 3360 ± 330
CCCGA | 4190 ± 450
CCCCG | 3500 ± 360
TACCA | 3940 ± 320
TGCC | 2510 ± 370
CAGA | 3690 ± 380
GCCAG | 4070 ± 460
GGTAT | 3870 ± 320
TGGAA | 4200 ± 510
AGCCG | 3440 ± 300
ACTGG | 3730 ± 370
GCGCA | 4700 ± 360
CGAT | 3390 ± 370
TGTAG | 3850 ± 440
TAATT | 3290 ± 370
